# Reference: the supplement of paper PMC10849652
# Sequences of proteins named here, by UniProt entry; tags and fusion partners are left off. A change or cut given only in a name is not applied to a line headed by its entry.
# UniProt Q9H2D6: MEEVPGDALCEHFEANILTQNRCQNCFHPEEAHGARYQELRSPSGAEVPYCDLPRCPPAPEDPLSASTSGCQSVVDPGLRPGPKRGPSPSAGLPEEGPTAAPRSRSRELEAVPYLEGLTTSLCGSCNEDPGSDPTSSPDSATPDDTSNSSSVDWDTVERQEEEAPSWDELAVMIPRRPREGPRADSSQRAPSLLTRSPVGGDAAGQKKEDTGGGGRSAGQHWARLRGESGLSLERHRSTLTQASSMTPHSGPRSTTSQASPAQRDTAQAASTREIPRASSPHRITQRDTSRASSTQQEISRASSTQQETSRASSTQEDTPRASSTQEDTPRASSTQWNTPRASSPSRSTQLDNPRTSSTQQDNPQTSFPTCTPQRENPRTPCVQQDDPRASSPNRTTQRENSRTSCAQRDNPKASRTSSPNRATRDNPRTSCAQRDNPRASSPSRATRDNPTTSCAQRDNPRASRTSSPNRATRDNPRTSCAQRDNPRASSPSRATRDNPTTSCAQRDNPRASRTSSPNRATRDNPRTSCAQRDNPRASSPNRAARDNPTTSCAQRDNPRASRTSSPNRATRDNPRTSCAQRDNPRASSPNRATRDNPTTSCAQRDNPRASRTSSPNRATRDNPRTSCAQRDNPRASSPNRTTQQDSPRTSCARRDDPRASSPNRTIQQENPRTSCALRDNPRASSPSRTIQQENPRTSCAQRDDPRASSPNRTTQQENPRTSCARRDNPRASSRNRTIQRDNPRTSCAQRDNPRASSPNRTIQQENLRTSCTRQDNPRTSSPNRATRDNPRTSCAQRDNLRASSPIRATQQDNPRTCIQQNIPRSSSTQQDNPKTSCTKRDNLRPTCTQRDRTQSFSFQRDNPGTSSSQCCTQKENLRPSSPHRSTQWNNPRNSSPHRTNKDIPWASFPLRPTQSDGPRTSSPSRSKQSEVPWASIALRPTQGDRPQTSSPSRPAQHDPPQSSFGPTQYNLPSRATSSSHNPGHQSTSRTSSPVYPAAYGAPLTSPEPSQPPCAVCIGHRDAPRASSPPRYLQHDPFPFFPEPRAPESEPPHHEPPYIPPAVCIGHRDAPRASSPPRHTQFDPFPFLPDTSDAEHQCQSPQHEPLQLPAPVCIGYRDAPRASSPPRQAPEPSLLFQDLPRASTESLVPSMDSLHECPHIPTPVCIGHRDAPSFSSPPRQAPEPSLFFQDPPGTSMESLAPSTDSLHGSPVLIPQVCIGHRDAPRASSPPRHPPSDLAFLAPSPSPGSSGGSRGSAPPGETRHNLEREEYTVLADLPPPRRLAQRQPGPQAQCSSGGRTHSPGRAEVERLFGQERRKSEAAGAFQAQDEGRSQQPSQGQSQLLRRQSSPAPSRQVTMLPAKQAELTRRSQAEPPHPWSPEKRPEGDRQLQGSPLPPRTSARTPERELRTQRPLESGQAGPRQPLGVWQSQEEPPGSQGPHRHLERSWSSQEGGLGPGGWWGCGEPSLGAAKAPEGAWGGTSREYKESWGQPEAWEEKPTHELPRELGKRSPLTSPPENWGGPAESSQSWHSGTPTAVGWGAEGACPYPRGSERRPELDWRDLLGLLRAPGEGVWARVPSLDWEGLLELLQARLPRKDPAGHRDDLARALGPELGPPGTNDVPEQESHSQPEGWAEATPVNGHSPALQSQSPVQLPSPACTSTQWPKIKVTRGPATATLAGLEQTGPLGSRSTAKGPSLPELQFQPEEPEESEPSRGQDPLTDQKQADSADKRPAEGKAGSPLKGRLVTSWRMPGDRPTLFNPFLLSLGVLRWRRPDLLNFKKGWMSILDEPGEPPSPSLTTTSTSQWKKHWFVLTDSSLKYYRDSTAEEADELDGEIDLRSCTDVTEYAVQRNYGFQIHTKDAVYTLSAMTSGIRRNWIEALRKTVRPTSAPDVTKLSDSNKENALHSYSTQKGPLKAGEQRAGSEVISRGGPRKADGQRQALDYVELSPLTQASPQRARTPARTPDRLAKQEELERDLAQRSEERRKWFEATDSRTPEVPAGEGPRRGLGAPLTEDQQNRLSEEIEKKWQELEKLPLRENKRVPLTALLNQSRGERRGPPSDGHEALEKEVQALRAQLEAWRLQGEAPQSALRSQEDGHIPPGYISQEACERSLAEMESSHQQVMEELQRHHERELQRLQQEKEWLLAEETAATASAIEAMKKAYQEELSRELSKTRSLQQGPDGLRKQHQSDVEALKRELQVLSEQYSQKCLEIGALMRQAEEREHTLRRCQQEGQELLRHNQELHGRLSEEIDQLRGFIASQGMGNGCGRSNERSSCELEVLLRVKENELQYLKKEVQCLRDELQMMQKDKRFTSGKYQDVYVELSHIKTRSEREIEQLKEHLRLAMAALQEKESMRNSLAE
# UniProt O95900: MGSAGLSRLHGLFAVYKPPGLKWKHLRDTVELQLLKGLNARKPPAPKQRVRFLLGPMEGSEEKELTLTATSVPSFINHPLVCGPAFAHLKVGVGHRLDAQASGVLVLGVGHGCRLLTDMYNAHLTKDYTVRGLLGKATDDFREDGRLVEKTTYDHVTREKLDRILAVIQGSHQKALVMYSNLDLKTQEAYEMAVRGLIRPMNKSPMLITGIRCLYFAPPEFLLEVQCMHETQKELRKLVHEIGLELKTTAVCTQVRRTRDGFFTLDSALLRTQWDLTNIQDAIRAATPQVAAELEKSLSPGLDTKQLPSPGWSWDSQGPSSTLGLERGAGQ
# UniProt A5PLN9: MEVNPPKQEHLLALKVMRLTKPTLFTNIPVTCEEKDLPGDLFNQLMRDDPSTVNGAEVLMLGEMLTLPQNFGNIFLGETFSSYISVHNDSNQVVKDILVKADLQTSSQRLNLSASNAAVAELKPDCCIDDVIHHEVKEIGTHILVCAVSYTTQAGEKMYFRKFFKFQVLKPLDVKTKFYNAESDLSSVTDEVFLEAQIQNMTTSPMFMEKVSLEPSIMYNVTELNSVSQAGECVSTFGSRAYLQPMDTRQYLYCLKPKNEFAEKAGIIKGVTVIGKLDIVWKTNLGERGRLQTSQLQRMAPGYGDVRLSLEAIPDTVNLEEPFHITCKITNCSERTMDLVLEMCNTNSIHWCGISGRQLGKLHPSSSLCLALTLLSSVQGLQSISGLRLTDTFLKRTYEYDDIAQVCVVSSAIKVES
# UniProt Q6PF06: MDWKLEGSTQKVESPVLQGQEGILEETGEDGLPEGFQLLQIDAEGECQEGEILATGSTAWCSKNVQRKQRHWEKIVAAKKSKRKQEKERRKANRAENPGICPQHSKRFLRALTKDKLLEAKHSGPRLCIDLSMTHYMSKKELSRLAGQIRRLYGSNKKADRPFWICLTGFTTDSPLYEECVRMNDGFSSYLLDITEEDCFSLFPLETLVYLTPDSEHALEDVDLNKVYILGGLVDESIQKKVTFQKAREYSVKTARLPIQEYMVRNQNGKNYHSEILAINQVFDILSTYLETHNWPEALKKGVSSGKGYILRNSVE
# UniProt P53804: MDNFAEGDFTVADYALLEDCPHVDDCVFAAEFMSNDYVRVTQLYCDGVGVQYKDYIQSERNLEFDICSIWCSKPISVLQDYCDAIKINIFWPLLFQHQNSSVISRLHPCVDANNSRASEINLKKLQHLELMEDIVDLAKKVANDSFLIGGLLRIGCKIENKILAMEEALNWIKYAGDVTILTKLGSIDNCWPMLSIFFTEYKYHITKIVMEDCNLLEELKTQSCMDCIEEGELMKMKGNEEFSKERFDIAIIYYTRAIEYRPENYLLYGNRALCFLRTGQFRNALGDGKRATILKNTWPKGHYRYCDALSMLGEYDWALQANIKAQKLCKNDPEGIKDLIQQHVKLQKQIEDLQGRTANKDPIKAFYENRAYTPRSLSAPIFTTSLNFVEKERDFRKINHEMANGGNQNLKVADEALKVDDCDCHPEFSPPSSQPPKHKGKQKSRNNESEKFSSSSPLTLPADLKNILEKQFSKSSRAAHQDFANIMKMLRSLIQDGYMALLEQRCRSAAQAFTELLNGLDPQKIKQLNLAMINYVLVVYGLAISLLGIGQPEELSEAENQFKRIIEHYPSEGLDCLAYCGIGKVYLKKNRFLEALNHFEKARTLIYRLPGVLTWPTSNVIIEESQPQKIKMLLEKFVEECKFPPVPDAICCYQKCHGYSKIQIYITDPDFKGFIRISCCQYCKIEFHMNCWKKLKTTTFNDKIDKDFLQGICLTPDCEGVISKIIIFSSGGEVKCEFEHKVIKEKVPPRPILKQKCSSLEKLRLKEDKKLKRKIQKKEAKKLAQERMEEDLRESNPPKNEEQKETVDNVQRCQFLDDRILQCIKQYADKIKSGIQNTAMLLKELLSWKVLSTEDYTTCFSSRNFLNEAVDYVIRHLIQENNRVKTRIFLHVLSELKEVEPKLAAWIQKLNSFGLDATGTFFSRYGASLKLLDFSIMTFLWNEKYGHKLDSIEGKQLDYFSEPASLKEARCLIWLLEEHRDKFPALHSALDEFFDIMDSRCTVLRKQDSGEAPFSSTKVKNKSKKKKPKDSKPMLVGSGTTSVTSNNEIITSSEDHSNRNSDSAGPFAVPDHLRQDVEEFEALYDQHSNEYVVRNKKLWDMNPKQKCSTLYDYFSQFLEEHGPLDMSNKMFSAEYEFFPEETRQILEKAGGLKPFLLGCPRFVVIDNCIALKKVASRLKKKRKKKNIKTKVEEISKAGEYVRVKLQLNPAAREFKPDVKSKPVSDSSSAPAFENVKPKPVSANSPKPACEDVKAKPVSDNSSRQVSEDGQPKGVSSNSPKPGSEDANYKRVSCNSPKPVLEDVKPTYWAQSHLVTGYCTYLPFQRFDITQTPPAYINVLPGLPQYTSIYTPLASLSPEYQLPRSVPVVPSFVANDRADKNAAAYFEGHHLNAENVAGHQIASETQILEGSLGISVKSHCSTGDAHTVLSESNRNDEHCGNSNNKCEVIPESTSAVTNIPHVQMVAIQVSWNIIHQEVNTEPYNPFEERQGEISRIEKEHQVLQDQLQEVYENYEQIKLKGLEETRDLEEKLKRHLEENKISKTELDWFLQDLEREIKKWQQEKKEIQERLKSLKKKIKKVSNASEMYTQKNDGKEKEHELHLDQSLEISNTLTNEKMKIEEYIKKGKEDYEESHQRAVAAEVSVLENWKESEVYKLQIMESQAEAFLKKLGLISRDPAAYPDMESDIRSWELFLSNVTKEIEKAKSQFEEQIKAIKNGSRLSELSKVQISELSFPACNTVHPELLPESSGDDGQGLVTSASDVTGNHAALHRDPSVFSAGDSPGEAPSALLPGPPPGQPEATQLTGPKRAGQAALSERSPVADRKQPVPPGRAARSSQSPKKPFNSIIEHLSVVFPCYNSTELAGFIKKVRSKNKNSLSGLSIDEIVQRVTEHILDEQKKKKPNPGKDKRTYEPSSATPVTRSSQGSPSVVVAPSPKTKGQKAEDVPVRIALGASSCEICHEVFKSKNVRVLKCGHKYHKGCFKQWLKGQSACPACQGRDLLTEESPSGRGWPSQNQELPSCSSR
# UniProt Q9BU70: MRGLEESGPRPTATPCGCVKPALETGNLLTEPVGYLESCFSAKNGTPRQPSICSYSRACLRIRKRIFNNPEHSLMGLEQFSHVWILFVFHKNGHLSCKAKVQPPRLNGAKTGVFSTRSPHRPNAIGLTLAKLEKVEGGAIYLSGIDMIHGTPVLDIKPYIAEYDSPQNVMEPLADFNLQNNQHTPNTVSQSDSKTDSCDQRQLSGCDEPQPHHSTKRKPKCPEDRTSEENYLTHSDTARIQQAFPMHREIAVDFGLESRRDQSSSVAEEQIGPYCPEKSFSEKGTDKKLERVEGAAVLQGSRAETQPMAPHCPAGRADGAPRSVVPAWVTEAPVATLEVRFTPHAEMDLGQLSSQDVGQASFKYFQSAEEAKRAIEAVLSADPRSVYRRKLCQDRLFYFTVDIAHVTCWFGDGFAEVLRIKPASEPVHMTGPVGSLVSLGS
# UniProt Q8WV44: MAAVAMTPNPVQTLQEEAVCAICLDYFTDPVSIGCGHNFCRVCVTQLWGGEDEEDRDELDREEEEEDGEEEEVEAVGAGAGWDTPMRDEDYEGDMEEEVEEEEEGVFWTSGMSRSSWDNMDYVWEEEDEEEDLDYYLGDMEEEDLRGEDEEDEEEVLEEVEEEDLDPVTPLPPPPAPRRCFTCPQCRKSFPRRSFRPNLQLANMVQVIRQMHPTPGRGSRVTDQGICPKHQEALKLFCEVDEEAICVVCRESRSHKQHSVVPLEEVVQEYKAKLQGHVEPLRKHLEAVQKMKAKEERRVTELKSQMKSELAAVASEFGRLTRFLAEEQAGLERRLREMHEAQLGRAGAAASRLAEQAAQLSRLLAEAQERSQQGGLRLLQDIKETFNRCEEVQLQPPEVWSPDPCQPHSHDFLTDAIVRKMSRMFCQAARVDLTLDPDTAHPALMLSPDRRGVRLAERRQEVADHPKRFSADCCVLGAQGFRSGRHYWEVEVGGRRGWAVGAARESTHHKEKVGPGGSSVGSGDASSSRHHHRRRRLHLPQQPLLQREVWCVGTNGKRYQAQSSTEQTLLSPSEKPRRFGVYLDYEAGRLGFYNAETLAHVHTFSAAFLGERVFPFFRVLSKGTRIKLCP
# The other results are listed elsewhere or left out.
# Experiments:
# Assay in all cases: log2 fold change, soluble protein after heating vs DMSO (PISA); higher = thermal stabilisation; K562 lysate, 10 uM; active = over 0.2 and 3.5 SD of the protein, either way, in both replicates (recomputed)
# alvocidib = compound: CN1CC[C@H](c2c(O)cc(O)c3c(=O)cc(-c4ccccc4Cl)oc23)[C@H](O)C1 [alvocidib]
# Method in brief: (§1)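 K562 pellets were dounce-homogenised in PBS pH 7.4 with 1 mM MgCl2, and the crude extract at 1 mg/mL protein was treated with 10 μM compound for 30 min. Aliquots were heated for 3 min across 48°C-58°C, pooled, and brought to 0.5% NP-40 at 4°C; soluble protein was the supernatant after 21,000xg for 90 min. Soluble protein was quantified by TMTpro 16plex LC-MS/MS with channel sums equalised, and reported as log2 fold change in thermal stability against DMSO controls, with values from duplicates.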
# Tubastatin A = compound: CN1CCc2c(c3ccccc3n2Cc2ccc(C(=O)NO)cc2)C1 [Tubastatin A]
# Method in brief: as §1
# [1] = compound: CNC(=O)C1=CC=CC=C1NC2=NC(=NC=C2Cl)NC3=C(C=C(C=C3)N4CCOCC4)OC
# Method in brief: as §1
# [2] = compound: CNc1nc(-c2ccc3c(N)n[nH]c3c2)cc(N2C[C@@H](C(=O)NC3CCCCC3)CC[C@H]2C)n1
# Method in brief: as §1
# pictilisib = compound: CS(=O)(=O)N1CCN(Cc2cc3nc(-c4cccc5[nH]ncc45)nc(N4CCOCC4)c3s2)CC1 [pictilisib]
# Method in brief: as §1
# crizotinib = compound: C[C@@H](Oc1cc(-c2cnn(C3CCNCC3)c2)cnc1N)c1c(Cl)ccc(F)c1Cl [crizotinib]
# Method in brief: as §1
# [3] = compound: C[C@H](C1=CC=C(C=C1)C(=O)NC2=C3C=CNC3=NC=C2)N
# Method in brief: as §1
# duvelisib = compound: C[C@H](Nc1ncnc2nc[nH]c12)c1cc2cccc(Cl)c2c(=O)n1-c1ccccc1 [duvelisib]
# Method in brief: as §1
# gandotinib = compound: Cc1cc(Nc2cc(CN3CCOCC3)c3nc(C)c(Cc4ccc(Cl)cc4F)n3n2)n[nH]1 [gandotinib]
# Method in brief: as §1
# doramapimod = compound: Cc1ccc(-n2nc(C(C)(C)C)cc2NC(=O)Nc2ccc(OCCN3CCOCC3)c3ccccc23)cc1 [doramapimod]
# Method in brief: as §1
# bafetinib = compound: Cc1ccc(NC(=O)c2ccc(CN3CC[C@H](N(C)C)C3)c(C(F)(F)F)c2)cc1Nc1nccc(-c2cncnc2)n1 [bafetinib]
# Method in brief: as §1
# [4] = compound: Cc1cccc(CC(=O)N2CCc3c2ccc(-c2cn(C)c4ncnc(N)c24)c3F)n1
# Method in brief: as §1
# defactinib = compound: CNC(=O)c1ccc(Nc2ncc(C(F)(F)F)c(NCc3nccnc3N(C)S(C)(=O)=O)n2)cc1 [defactinib]
# Method in brief: as §1
# encorafenib = compound: COC(=O)N[C@@H](C)CNc1nccc(-c2cn(C(C)C)nc2-c2cc(Cl)cc(NS(C)(=O)=O)c2F)n1 [encorafenib]
# Method in brief: as §1
# [5] = compound: COC(=O)[C@H](CCSC)NC(=O)C1=C(C=C(C=C1)NC[C@H](CS)N)C2=CC=CC=C2
# Method in brief: as §1
# alisertib = compound: COc1cc(Nc2ncc3c(n2)-c2ccc(Cl)cc2C(c2c(F)cccc2OC)=NC3)ccc1C(=O)O [alisertib]
# Method in brief: as §1
# [6] = compound: COc1cc2nc(-c3cc(F)ccc3O)nc(N[C@@H]3CNC[C@H]3C(C)(C)O)c2cc1OC
# Method in brief: as §1
# gefitinib = compound: COc1cc2ncnc(Nc3ccc(F)c(Cl)c3)c2cc1OCCCN1CCOCC1 [gefitinib]
# Method in brief: as §1
# lapatinib = compound: CS(=O)(=O)CCNCc1ccc(-c2ccc3ncnc(Nc4ccc(OCc5cccc(F)c5)c(Cl)c4)c3c2)o1 [lapatinib]
# Method in brief: as §1
# tozasertib = compound: Cc1cc(Nc2cc(N3CCN(C)CC3)nc(Sc3ccc(NC(=O)C4CC4)cc3)n2)n[nH]1 [tozasertib]
# Method in brief: as §1
Target,log2 fold change (alvocidib),log2 fold change (Tubastatin A),log2 fold change [1],log2 fold change [2],log2 fold change (pictilisib),log2 fold change (crizotinib),log2 fold change [3],log2 fold change (duvelisib),log2 fold change (gandotinib),log2 fold change (doramapimod),log2 fold change (bafetinib),log2 fold change [4],log2 fold change (defactinib),log2 fold change (encorafenib),log2 fold change [5],log2 fold change (alisertib),log2 fold change [6],log2 fold change (gefitinib),log2 fold change (lapatinib),log2 fold change (tozasertib)
TRPM4 (UniProt Q8TD43),inactive: -0.401,inactive: 0.053,inactive: -0.163,inactive: 0.14,inactive: -0.085,inactive: 0.055,active: -0.654,inactive: 0.042,inactive: 0.088,inactive: -0.111,inactive: -0.02,inactive: 0.25,,,,,,,,
TRIAP1 (UniProt O43715),inactive: 0.207,inactive: 0.147,inactive: 0.073,inactive: -0.054,,inactive: -0.051,inactive: 0.284,inactive: -0.009,inactive: -0.044,inactive: -0.128,,inactive: -0.053,inactive: 0.104,inactive: 0.036,inactive: -0.114,inactive: 0.072,inactive: -0.003,inactive: -0.08,inactive: 0.071,inactive: 0.054
TSPAN3 (UniProt O60637),inactive: 0.193,inactive: -0.081,inactive: 0.027,inactive: 0.091,,,active: 0.513,inactive: -0.058,inactive: -0.163,,,inactive: -0.342,inactive: 0.096,inactive: -0.015,inactive: 0.026,inactive: -0.231,inactive: 0.042,inactive: 0.049,inactive: -0.013,inactive: -0.01
TRIO (UniProt O75962),inactive: 0.004,,inactive: 0.019,inactive: 0.021,inactive: 0.021,inactive: -0.386,inactive: -0.219,inactive: -0.022,inactive: 0.061,inactive: 0.157,inactive: -0.096,inactive: 0.115,inactive: 0.011,inactive: -0.062,inactive: 0.008,inactive: -0.011,inactive: 0.027,inactive: -0.028,inactive: -0.169,inactive: -0.001
TRIOBP (UniProt Q9H2D6),inactive: 0.019,inactive: 0.013,inactive: 0.119,inactive: -0.068,inactive: 0.044,inactive: 0.02,inactive: -0.012,inactive: -0.019,inactive: -0.103,inactive: 0.047,inactive: -0.036,inactive: -0.022,inactive: 0,inactive: 0.009,inactive: 0.085,,inactive: -0.051,,inactive: 0.11,inactive: -0.035
"TSEN15, A0A2U3TZM3",inactive: -0.115,inactive: 0.174,,inactive: -0.16,,,inactive: 0.159,inactive: -0.125,inactive: -0.23,,,inactive: 0.051,inactive: 0.134,,,inactive: -0.282,inactive: -0.156,inactive: 0.044,inactive: 0.074,
TRUB2 (UniProt O95900),inactive: 0.038,inactive: -0.058,inactive: 0.218,inactive: 0.258,,,inactive: -0.1,inactive: -0.066,inactive: -0.071,,,inactive: 0,inactive: -0.039,inactive: 0.018,inactive: 0.078,,,,,inactive: 0.116
TTK (UniProt P33981),inactive: -0.004,inactive: -0.141,active: 0.616,inactive: 0.101,inactive: 0.142,inactive: -0.008,inactive: 0,inactive: -0.031,inactive: 0.058,inactive: 0.143,inactive: -0.068,inactive: 0.024,active: 0.434,inactive: 0.004,inactive: -0.02,inactive: 0.078,inactive: 0.103,inactive: -0.102,inactive: 0.061,inactive: -0.054
TRAPPC13 isoform 4 (UniProt A5PLN9),inactive: -0.003,inactive: -0.078,inactive: 0.06,inactive: 0.083,inactive: -0.057,inactive: -0.028,inactive: -0.066,inactive: 0.004,inactive: 0.068,inactive: 0.061,inactive: -0.009,inactive: 0.047,inactive: 0.084,inactive: -0.008,inactive: -0.038,inactive: 0.009,inactive: 0.035,inactive: 0.041,inactive: 0.001,inactive: 0.04
TRMT10B (UniProt Q6PF06),inactive: -0.129,inactive: -0.218,,,,,inactive: -0.117,,inactive: -0.027,,,inactive: 0.12,,,,,,,,
TTC3 (UniProt P53804),,inactive: -0.04,inactive: 0.017,inactive: -0.075,,,,inactive: 0.097,,,,,,,,inactive: -0.203,,inactive: 0.174,,
TTC37 (UniProt Q6PGP7),,inactive: 0.072,inactive: -0.13,inactive: 0.185,inactive: -0.03,inactive: -0.202,,inactive: 0.096,,inactive: 0.069,inactive: -0.26,,inactive: -0.061,,,inactive: 0.032,inactive: 0.043,inactive: 0.081,inactive: -0.157,
TRMO (UniProt Q9BU70),,,,inactive: -0.114,inactive: -0.18,inactive: -0.111,,inactive: -0.112,,inactive: 0.05,inactive: -0.089,,inactive: 0.011,inactive: 0.058,inactive: -0.056,,,,,inactive: -0.04
TRIM41 (UniProt Q8WV44),inactive: 0.065,,,inactive: -0.126,,inactive: -0.089,inactive: -0.029,inactive: -0.006,inactive: -0.114,inactive: 0.049,,inactive: -0.07,inactive: -0.035,inactive: -0.02,inactive: 0.098,,inactive: 0.001,,inactive: -0.119,inactive: 0.089

# 2 entries from above, reformatted:
Target | log2 fold change (alvocidib) | log2 fold change (Tubastatin A) | log2 fold change [1] | log2 fold change [2] | log2 fold change (pictilisib) | log2 fold change (crizotinib) | log2 fold change [3] | log2 fold change (duvelisib) | log2 fold change (gandotinib) | log2 fold change (doramapimod) | log2 fold change (bafetinib) | log2 fold change [4] | log2 fold change (defactinib) | log2 fold change (encorafenib) | log2 fold change [5] | log2 fold change (alisertib) | log2 fold change [6] | log2 fold change (gefitinib) | log2 fold change (lapatinib) | log2 fold change (tozasertib)
TRAPPC13 isoform 4 (UniProt A5PLN9) | inactive: -0.003 | inactive: -0.078 | inactive: 0.06 | inactive: 0.083 | inactive: -0.057 | inactive: -0.028 | inactive: -0.066 | inactive: 0.004 | inactive: 0.068 | inactive: 0.061 | inactive: -0.009 | inactive: 0.047 | inactive: 0.084 | inactive: -0.008 | inactive: -0.038 | inactive: 0.009 | inactive: 0.035 | inactive: 0.041 | inactive: 0.001 | inactive: 0.04
TRMT10B (UniProt Q6PF06) | inactive: -0.129 | inactive: -0.218 |  |  |  |  | inactive: -0.117 |  | inactive: -0.027 |  |  | inactive: 0.12 |  |  |  |  |  |  |  | 
